# “And” between values parts separate entries of the source, which are not always exact repeats. Equal values may be shown once. Hit rate of the full screen: of about 390,000 compounds, about 820 (0.21%) were called active. The shares of active, inactive and inconclusive entries below differ from those in the screen. The call rests on the fitted dose curve; in most records, active means well fitted inhibition curve with a large enough effect; inconclusive means small, poorly fitted or top-dose-only effect, or another doubt; inactive means no such curve, though single readings can be large or run the other way. Potencies of inconclusive entries are doubtful fits and often do not repeat.
# Sequences of proteins named here, by UniProt entry; tags and fusion partners are left off.
# UniProt Q92830, whole entry, looked up: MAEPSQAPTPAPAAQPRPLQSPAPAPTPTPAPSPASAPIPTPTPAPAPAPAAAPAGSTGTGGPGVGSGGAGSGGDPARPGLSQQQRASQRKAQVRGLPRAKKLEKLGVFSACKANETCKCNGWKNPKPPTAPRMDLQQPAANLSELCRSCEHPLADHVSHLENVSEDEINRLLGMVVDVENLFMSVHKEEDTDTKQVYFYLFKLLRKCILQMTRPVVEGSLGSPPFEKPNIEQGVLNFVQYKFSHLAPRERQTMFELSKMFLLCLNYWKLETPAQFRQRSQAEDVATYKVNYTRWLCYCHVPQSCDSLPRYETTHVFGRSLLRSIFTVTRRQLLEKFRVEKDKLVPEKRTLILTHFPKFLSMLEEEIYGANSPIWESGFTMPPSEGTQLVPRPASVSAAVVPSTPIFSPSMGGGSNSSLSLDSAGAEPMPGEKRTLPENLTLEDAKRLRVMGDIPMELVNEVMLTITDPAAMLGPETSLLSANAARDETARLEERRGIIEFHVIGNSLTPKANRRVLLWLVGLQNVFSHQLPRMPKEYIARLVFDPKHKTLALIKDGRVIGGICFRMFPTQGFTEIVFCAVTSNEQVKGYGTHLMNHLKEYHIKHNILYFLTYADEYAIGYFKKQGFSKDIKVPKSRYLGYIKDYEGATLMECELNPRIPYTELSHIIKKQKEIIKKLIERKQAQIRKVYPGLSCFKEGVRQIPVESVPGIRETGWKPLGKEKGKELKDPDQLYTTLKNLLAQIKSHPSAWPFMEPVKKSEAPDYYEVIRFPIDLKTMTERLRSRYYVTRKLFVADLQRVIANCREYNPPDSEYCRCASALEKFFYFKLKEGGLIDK
# Target: Histone acetyltransferase KAT2A (Homo sapiens) (UniProt Q92830)
# Assay: qHTS Assay for Inhibitors of GCN5L2
# Details: GCN5L2 HAT assay, ThioGlo1 CoA-SH fluorescence; activity change, negative = inhibition: at 58.9 µM (top of the series) unless noted
# Method in brief: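 Fluorescence readout, Ex340nm/Em540nm: ThioGlo1 (50uM final) reacts with free CoA thiol released as 20nM GCN5L2 acetylates H3(1-25) peptide (75uM) using acetyl-CoA (70uM). Compound and enzyme sat 15 min beforehand; 20 min room-temperature reaction.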
# On the % scale 0 is the no-effect control and ±100 the full control effect; potency means the concentration at half of the fitted maximal effect.
SMILES,Potency,"activity change, negative = inhibition"
C/C(O)=C(\C#N)C(=O)Nc1cc(Br)ccc1Br,"inconclusive: 39.8 µM [inhibitor, single point]",–
O=C(Nc1cc(C(F)(F)F)ccc1O)Nc1cc(C(F)(F)F)ccc1O,"inconclusive: 39.8 µM [inhibitor, single point]",–
O=C1Nc2cc(C(=O)N3CCC4(CC3)OCCO4)ccc2NC1CSCc1cccc(F)c1 (stereo not drawn),"inconclusive: 31.6 µM [inhibitor, single point]",–
C/C=C/CC#N,"inconclusive: 35.5 µM [inhibitor, single point]",–
CCOC(=O)C1=C(N)OC(C)=C(C(=O)OCCOC)C12C(=O)Nc1ccccc12 (stereo not drawn),"inconclusive: 39.8 µM [inhibitor, single point]",–
CCCCC/C=C\C/C=C\C/C=C\C/C=C\CCCC(=O)NCC(=O)O,active: 6.31 µM,–
Oc1ccc(Cl)cc1Cc1cc(Cl)ccc1O,"inconclusive: 35.5 µM [inhibitor, single point]",–
O=C(N/N=C/c1c(O)n(CCc2ccccc2)c(=O)[nH]c1=O)c1ccccc1O,"inconclusive: 39.8 µM [inhibitor, single point]",–
CCCCCCCCCCCCCCOS(=O)(=O)O,active: 8.91 µM,–
COC(=O)CCC(=O)Nc1sc(Cc2ccccc2)c(C)c1C(N)=O,"inconclusive: 39.8 µM [inhibitor, single point]",–
CC(C)NS(=O)(=O)c1ccc(OCC(=O)N2CCN(Cc3ccc4c(c3)OCO4)CC2)c(Cl)c1,–,inactive: -20.9%
Cc1ccccc1N1C(=O)/C(=C/c2ccco2)C(=O)NC1=S,active: 2.24 µM,–
O=C(N1CCOCC1)N1CCN(C(c2ccccc2)c2ccccc2)CC1,"inconclusive: 39.8 µM [inhibitor, partial curve, poor fit]",–
C/C=C(\C)C(=O)OC1C(C)=C2C(C1OC(=O)CCCCC)C(C)(OC(C)=O)CC(OC(=O)CCC)C1(O)C2OC(=O)C1(C)O (stereo not drawn),"inconclusive: 39.8 µM [inhibitor, single point]",–
CCC(NC(=O)OC(C)(C)C)C(=O)Oc1cc(C)cc2oc(=O)c3c(c12)CCC3 (stereo not drawn),–,inactive: -7%
CCCCCn1c(=O)c(C(=O)Nc2ccccc2C)c(O)c2ccccc21,"inconclusive: 2 µM [inhibitor, partial curve]",–
Cc1nc2ncnn2c(C)c1CCC(=O)N1CCC2(CC1)OCCO2,–,inactive: 1.5%
CCc1ccc(-n2c(O)c(/C=N/NC(=O)c3ccncc3)c(=O)[nH]c2=O)cc1,–,inactive: -6.51%
O=c1c2ccccc2nc(-c2ccccc2)n1-c1ccccc1O,"inconclusive: 7.08 µM [inhibitor, single point]",–

# Structural class, the compounds so far with fluorine.
SMILES,Potency,"activity change, negative = inhibition"
O=C(Nc1cc(C(F)(F)F)ccc1O)Nc1cc(C(F)(F)F)ccc1O,"inconclusive: 39.8 µM [inhibitor, single point]",–
O=C1Nc2cc(C(=O)N3CCC4(CC3)OCCO4)ccc2NC1CSCc1cccc(F)c1 (stereo not drawn),"inconclusive: 31.6 µM [inhibitor, single point]",–

# The results go on.

SMILES,Potency,"activity change, negative = inhibition"
CN1C[C@@H](C(=O)N[C@@]2(C)O[C@]3(O)C4CCCN4C(=O)[C@@H](Cc4ccccc4)N3C2=O)C=C2c3cccc4[nH]cc(c34)C[C@@H]21 (stereo partly drawn),"inconclusive: 0.126 µM [inhibitor, full curve, poor fit]",–
COc1cc2c3cc1Oc1cc(ccc1O)C[C@@H]1c4c(cc(OC)c(O)c4Oc4cccc(c4)C[C@H]3N(C)CC2)CC[N+]1(C)C,"inconclusive: 11.2 µM [inhibitor, single point]",–
COc1ccc(CCN)cc1,–,inactive: 3.13%
O=C(OCC(=O)c1cccs1)C1=COCCO1,"inconclusive: 7.94 µM [inhibitor, single point]",–
C[N+]1(C)C2CCC1CC(OC(=O)c1c[nH]c3ccccc13)C2 (stereo not drawn),"inconclusive: 22.4 µM [inhibitor, single point] and inconclusive: 12.6 µM [inhibitor, partial curve]",–
CC(=O)O[C@H]1C(=O)[C@@]2(C)C([C@H](OC(=O)c3ccccc3)[C@]3(O)C[C@H](OC(=O)[C@H](O)[C@@H](NC(=O)c4ccccc4)c4ccccc4)C(C)=C1C3(C)C)[C@]1(OC(C)=O)CO[C@@H]1C[C@@H]2OC(=O)[C@H](C)NC(=O)c1ccc(-c2c3ccc(=O)cc-3oc3cc(O)ccc23)c(C(=O)O)c1 (stereo partly drawn),"inconclusive: 2.82 µM [inhibitor, partial curve]",–
CCOP(=O)(OCC)c1nc(-c2cccc3ccccc23)oc1N1CCOCC1,"inconclusive: 17.8 µM [inhibitor, partial curve]",–
CC(O)C(C)OC(=O)[C@@H]1C[C@@H]2c3cccc4c3c(cn4C(C)C)C[C@H]2N(C)C1 (stereo partly drawn),"inconclusive: 20 µM [inhibitor, single point]",–
O=C(O)C(Cc1cnc[nH]1)NS(=O)(=O)c1ccc(Br)cc1 (stereo not drawn),–,inactive: -2.65%
O=C1NC(=O)N(Cc2ccco2)C(=O)/C1=C\c1ccc(-c2ccc(F)cc2)o1,"inconclusive: 12.6 µM [inhibitor, partial curve, poor fit]",–
COc1ccc(C2CC(c3cccs3)=NN2c2nc(C)c(C(C)=O)s2)cc1OC (stereo not drawn),"inconclusive: 39.8 µM [inhibitor, single point]",–
O=C(C(=C1N(Cc2ccc(Cl)nc2)CCN1Cc1ccc(Cl)nc1)[N+](=O)[O-])C(Cl)Cl,–,inactive: 18.5%
C[C@H]1OC[C@@H](C[N+](C)(C)C)O1,"inconclusive: 39.8 µM [inhibitor, single point]",–
O=C(CNS(=O)(=O)c1ccc(Br)s1)N1CCC2(CC1)OCCO2,"inconclusive: 39.8 µM [inhibitor, single point]",–
N#CC(C#N)=NNc1ccc(-n2ccc(C(F)(F)F)n2)cc1,"inconclusive: 0.501 µM [inhibitor, full curve, poor fit]",–
O=C1NC(=O)N(c2cccc(Cl)c2)C(=O)/C1=C\c1ccc(Sc2nc3ccccc3[nH]2)o1,"inconclusive: 35.5 µM [inhibitor, single point]",–
CCCCc1cc(=O)oc2cc(OCC(=O)N3C[C@H]4C[C@@H](C3)c3cccc(=O)n3C4)c(Cl)cc12,"inconclusive: 5.01 µM [inhibitor, single point]",–
CCC1(CC)C(=O)NC(=O)NC1=O,"inconclusive: 39.8 µM [inhibitor, single point]",–
CCCCCC[C@H]1C(=O)O[C@H](C)[C@H](NC(=O)c2cccc(NC=O)c2O)C(=O)O[C@@H](C)[C@H]1OC(=O)CC(C)C,"inconclusive: 14.1 µM [inhibitor, single point]",–

# From PubChem BioAssay AID504327 (National Center for Advancing Translational Sciences (NCATS), 2011)
